PubChem BioAssay AID1053208 – Peter MacCallum Cancer Centre – 2014

Screen: 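Find knock-downs that sensitise mouse osteosarcoma cells to doxorubicin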 (primary screen)
Cell system: mouse osteosarcoma cells, early-passage culture from an engineered mouse model of fibroblastic bone tumour
Reagents: siRNA pool against mouse genes, 40 nM
Duration: about 120 h (48 h before drug, then 72 h with drug)
Challenge: doxorubicin 100 nM for 72 h, roughly 30-40% inhibitory dose
Read-out: 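Luminescent ATP signal taken as viability with or without 100 nM doxorubicin for 72 h; mean of two wells set against non-targeting siRNA and turned into robust z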
Reading the numbers: viability z-score with doxorubicin: higher = more viable cells under doxorubicin; viability z-score without drug: higher = more viable cells with knock-down alone
Call rule: 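a pool counts as active when its viability z-score with doxorubicin is -2 or below and its z-score without drug lies between -2 and 2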
The deposit covers about 17,000 reagents; shown is an unselected part. In the full data, 788 (4.7%) were called active. 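Calls rest on z-score classes alone; an extra cut-off of viability at most 70% of control was not applied to them.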 A number with no mark means an inactive call. Not all columns of the deposit are shown.

gene | PubChem SID | combined z-score class | viability z-score with doxorubicin | viability z-score without drug
Actb (actin, beta) | SID152293709 | no change with or without drug | -0.67 | -1.85
Foxd3 (forkhead box D3) | SID152338134 | no change with or without drug | 0.9 | 0.84
S100g (S100 calcium binding protein G) | SID152262159 | no change with or without drug | 1.69 | 0.34
Sstr5 (somatostatin receptor 5) | SID152309112 | no change with or without drug | -1.01 | -0.67
Tkt (transketolase) | SID152272920 | no change with or without drug | 0.67 | 0.51
Or5b102 (olfactory receptor family 5 subfamily B member 102) | SID152330341 | no change with or without drug | -0.22 | 0.84
Or51l14 (olfactory receptor family 51 subfamily L member 14) | SID152317733 | no change with or without drug | 0.67 | 0.84
Stk33 (serine/threonine kinase 33) | SID152301798 | no change with or without drug | 0 | -0.84

Continued (2 carried over from the part before).
gene | PubChem SID | combined z-score class | viability z-score with doxorubicin | viability z-score without drug
Or51l14 (olfactory receptor family 51 subfamily L member 14) | SID152317733 | no change with or without drug | 0.67 | 0.84
Stk33 (serine/threonine kinase 33) | SID152301798 | no change with or without drug | 0 | -0.84
Pcdhga12 (protocadherin gamma subfamily A, 12) | SID152266056 | low cell count with doxorubicin only (active) | -2.02 | -0.84
Ctsq (cathepsin Q) | SID152310750 | no change with or without drug | 1.35 | -0.17
Or14a259 (olfactory receptor family 14 subfamily A member 259) | SID152264074 | no change with or without drug | -0.22 | -1.85
Timp2 (tissue inhibitor of metalloproteinase 2) | SID152342503 | low cell count with doxorubicin only (active) | -2.14 | -1.18
Vmn1r27 (vomeronasal 1 receptor 27) | SID152323700 | no change with or without drug | 0.56 | -0.67
Gan (giant axonal neuropathy) | SID152306114 | no change with or without drug | -0.22 | 0.51
Igsf3 (immunoglobulin superfamily, member 3) | SID152272183 | no change with or without drug | -0.9 | 0.51
Def6 (differentially expressed in FDCP 6) | SID152331453 | no change with or without drug | -1.01 | -0.84
Klf8 (Kruppel-like transcription factor 8) | SID152282262 | no change with or without drug | 0 | 0.34
Cops4 (COP9 signalosome subunit 4) | SID152333972 | no change with or without drug | -1.46 | -0.17
Tsn (translin) | SID152268140 | no change with or without drug | -0.34 | -0.34
Mau2 | SID152265707 | no change with or without drug | -0.9 | 0.51
